Consider one molecule from PMC8880919.

These are yes or no findings as the source states them, for the method shown. Binding seen in cells or lysates may run through a third protein. Some binding calls cover weakened binding; strength is not graded here.

Assay in all cases: co-IP; protein extracts of wild type S. pombe cells expressing chromosomally tagged proteins; 500 ug protein, IP with anti-MYC or anti-FLAG overnight at 4 C, protein A/G sepharose; lysis buffer PBS pH 7.0, 200 mM NaCl, 0.5 mM EGTA, 0.5 mM EDTA, 0.1% Triton X100; five washes at 220 mM NaCl; blots with anti-HA, anti-FLAG or anti-MYC
One test deals with T1, Tpr1 (S. pombe) (UniProt O42668).
T1 sequence: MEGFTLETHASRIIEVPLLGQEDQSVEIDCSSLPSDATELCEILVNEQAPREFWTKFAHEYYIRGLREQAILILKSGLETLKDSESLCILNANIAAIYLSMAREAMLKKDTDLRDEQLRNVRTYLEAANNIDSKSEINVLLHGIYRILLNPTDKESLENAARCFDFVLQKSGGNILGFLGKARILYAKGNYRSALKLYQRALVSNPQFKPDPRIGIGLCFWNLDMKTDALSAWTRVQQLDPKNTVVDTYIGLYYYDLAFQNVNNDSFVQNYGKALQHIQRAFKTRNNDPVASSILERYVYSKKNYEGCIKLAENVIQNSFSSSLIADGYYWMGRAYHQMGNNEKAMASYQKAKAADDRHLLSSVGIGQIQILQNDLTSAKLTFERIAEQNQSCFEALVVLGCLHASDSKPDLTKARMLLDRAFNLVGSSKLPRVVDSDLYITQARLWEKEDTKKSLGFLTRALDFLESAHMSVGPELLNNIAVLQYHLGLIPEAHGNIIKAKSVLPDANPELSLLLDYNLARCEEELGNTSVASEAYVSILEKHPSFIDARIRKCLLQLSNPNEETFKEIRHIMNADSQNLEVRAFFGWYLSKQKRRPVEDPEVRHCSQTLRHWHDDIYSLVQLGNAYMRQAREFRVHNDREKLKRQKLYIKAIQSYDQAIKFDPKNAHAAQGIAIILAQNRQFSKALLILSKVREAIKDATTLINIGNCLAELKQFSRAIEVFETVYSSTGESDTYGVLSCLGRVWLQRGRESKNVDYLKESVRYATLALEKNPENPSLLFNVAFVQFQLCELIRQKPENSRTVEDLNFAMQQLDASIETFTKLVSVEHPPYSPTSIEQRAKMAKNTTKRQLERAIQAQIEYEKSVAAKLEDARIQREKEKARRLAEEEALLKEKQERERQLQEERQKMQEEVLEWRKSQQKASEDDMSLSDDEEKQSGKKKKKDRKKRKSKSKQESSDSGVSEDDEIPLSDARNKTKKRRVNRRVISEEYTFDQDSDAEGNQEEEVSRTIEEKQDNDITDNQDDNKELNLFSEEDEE

A further test addresses T2, Rhp6 (S. pombe) (UniProt P23566).
T2 sequence: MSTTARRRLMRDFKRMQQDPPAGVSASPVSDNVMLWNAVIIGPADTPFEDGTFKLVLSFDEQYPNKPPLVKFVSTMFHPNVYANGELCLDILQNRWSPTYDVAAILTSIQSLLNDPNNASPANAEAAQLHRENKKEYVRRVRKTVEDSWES

For a further test, the target named is T3, Mst1 (S. pombe) (UniProt O94446).
T3 sequence: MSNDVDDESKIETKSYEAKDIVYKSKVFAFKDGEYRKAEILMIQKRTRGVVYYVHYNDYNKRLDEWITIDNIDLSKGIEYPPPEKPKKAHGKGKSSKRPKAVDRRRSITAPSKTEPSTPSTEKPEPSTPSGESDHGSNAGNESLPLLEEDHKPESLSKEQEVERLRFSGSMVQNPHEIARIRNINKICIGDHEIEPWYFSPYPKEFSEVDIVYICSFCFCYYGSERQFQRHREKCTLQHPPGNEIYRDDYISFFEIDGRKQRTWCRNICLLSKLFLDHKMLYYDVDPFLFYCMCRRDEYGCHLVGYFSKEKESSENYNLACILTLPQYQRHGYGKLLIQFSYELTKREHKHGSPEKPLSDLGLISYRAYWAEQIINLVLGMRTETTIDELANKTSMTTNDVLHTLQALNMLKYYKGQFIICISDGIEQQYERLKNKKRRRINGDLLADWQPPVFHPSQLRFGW

B1: Gad8 (protein, UniProt Q9P7J8 1-569)
chain: MSWKLTKKLKETHLASAIGLNSGGSSFTRGLKNSTLSSTSSRKSSDEKSRKSSEDKRSPQSTVVQPGLLQVTIIEARNLKLPSGHVPANYGVSIDNSLLAPPLSNGSGHARSRSHAWWLPYIVVEFDKNEILVDALNTASLENPCWDYQATFDVSRYSKLSLNIYLRSSSSRSRNGMGNDAFLGGIKLSPSFIVNKLTDEWVPLHGGSGELRVQMLYKPNQSTPLTIDAFELLKVVGKGSFGKVMQVRKRDTSRIYALKTMKKAHIVSRSEVDHTLAERTVLAQVNNPFIVPLKFSFQSPGKLYLVLAFVNGGELFHHLQREGCFDTYRAKFYIAELLVALECLHEFNVIYRDLKPENILLDYTGHIALCDFGLCKLNMAKTDRTNTFCGTPEYLAPELLLGHGYTKVVDWWTLGVLLYEMITGLPPFYDENINEMYRKILQDPLRFPDNIDEKAKDLLSGLLTRAPEKRLGSGGAQEIKNHPFFDDIDWKKLCAKKIQPPFKPSVESAIDTSNFDSEFTSEIPMDSVVADSHLSETVQQRFANWSYQRPTTIDTSDDINTIAPGSVIR
On to B1, for which the binding result is reported as “no binding” in the test with Tpr1 (S. pombe), “binds” with Rhp6 (S. pombe) and “binds” in the test with Mst1 (S. pombe).
